# Reference: publication doi:10.1101/2020.03.31.019216
# Protein sequences, listed by entry. Tags and fused reporters are not part of them.
# UniProt P0DTC6, whole entry: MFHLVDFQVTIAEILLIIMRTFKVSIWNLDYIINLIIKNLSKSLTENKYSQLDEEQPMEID
# What was measured:
# Assay in all cases: affinity purification with mass spectrometry
# [1] = biological target: 3xFlag-tagged SARS-CoV-2 non-structural protein nsp10 (SARS-CoV-2) (UniProt P0DTD1)
# [2] = biological target: 3xFlag-tagged SARS-CoV-2 non-structural protein nsp9 (SARS-CoV-2) (UniProt P0DTD1)
# [3] = biological target: 3xFlag-tagged SARS-CoV-2 accessory protein ORF6 (SARS-CoV-2) (UniProt P0DTC6)
Molecule,binding [1],binding [2],binding [3]
C1QBP (from UniProt Q07021 74-282),binds,binds,
"RAE1 (protein, UniProt P78406 1-368) MSLFGTTSGFGTSGTSMFGSATTDNHNPMKDIEVTSSPDDSIGCLSFSPPTLPGNFLIAGSWANDVRCWEVQDSGQTIPKAQQMHTGPVLDVCWSDDGSKVFTASCDKTAKMWDLSSNQAIQIAQHDAPVKTIHWIKAPNYSCVMTGSWDKTLKFWDTRSSNPMMVLQLPERCYCADVIYPMAVVATAERGLIVYQLENQPSEFRRIESPLKHQHRCVAIFKDKQNKPTGFALGSIEGRVAIHYINPPNPAKDNFTFKCHRSNGTNTSAPQDIYAVNGIAFHPVHGTLATVGSDGRFSFWDKDARTKLKTSEQLDQPISACCFNHNGNIFAYASSYDWSKGHEFYNPQKKNYIFLRNAAEELKPRNKK",,,binds

# Results are given in words; binding and its absence hold for the method and conditions named. In cells and extracts the contact can be indirect. A yes stands for co-enrichment or nearness to the bait. Other partners may have been found.
